Test results as given in paper PMC4844700, “Rifampin phosphotransferase is an unusual antibiotic resistance kinase” (Nature Communications, 2016).
No constants are given. Whether binding was seen depends on the method and setting.

Chains of the proteins cited; added tags and fusions are not shown.
UniProt A0A0X1KHF9: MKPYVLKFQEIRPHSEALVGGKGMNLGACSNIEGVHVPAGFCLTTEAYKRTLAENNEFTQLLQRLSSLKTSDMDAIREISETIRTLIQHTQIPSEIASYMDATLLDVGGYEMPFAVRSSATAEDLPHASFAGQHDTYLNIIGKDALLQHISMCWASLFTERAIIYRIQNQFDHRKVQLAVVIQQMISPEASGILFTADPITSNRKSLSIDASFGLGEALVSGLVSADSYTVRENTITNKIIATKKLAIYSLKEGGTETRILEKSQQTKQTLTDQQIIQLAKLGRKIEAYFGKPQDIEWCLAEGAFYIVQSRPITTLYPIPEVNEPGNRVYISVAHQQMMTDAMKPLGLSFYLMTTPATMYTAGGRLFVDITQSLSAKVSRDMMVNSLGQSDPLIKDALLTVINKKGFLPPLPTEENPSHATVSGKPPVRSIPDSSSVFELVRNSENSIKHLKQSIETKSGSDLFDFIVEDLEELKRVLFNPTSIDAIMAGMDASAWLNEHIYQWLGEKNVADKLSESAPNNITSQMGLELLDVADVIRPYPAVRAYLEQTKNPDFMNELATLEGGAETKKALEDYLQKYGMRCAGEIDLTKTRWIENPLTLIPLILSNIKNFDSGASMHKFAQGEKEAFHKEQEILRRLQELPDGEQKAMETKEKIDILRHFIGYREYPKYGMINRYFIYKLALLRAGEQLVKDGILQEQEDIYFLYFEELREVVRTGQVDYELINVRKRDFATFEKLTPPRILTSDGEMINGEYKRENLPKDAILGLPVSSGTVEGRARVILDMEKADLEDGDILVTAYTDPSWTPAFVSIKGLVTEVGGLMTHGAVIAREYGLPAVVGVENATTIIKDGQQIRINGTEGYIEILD

Assays:
[1] = biological target: Rifampin phosphotransferase from Listeria monocytogenes (RPH-Lm) (L. monocytogenes str. 4b F2365); experiment: SEC; both purified
[2] = biological target: Rifampin phosphotransferase from Listeria monocytogenes (RPH-Lm) (L. monocytogenes str. 4b F2365); experiment: SAXS; both purified

In the case of “Rifampin phosphotransferase from Listeria monocytogenes (RPH-Lm) (from UniProt A0A0X1KHF9) (enzyme)”, the binding [1] is reported as “no binding” and the binding [2] is reported as “no binding (tested: 2–6 mg ml^−1)”.
